Test results as given in patent US12371666B2, “Nucleoside modified mRNA and uses thereof” (BOSTON MEDICAL CENTER CORPORATION, priority 2021, dated 2025).
At least one structure is not confirmed: it was looked up by name or label, or the drawing left a doubt.

System: Tg(fabp10a:CFP-NTR) larvae
Test: Zebrafish NTR/Mtz hepatocyte ablation model of BEC-driven liver regeneration
Conditions: PI3K or MEK1/2 inhibitor treatment
From the text: a. […] In the Tg(fabp10a:CFP-NTR)^5931 zebrafish line, bacterial nitroreductase (NTR) is expressed under the hepatocyte-specific fabp10a promoter^2. Since the NTR enzyme converts the non-toxic prodrug, metronidazole (Mtz), into a cytotoxic drug^59, 60 treating the transgenic zebrafish with Mtz specifically ablates hepatocytes. In this model, upon severe hepatocyte loss, BECs first dedifferentiate into LPCs, then re-differentiate into either hepatocytes or BECs, thereby leading to full liver recovery^2.
b. […] Upon targeted chemical screening using the NTR/Mtz model^61, the inventors examined the effect of VEGFR2 inhibition on BEC-driven liver regeneration. The inventors used the Notch reporter line Tg(Tp1:H2B-mCherry)^939 that expresses H2B-mCherry fusion proteins in BECs.
c. […] Given that VEGFR2 functions via at least two major signaling branches, PI3K/AKT and MEK/ERK1/2, the inventors tested which downstream branch controls BEC-driven liver regeneration using their specific inhibitors (LY294002 for PI3K and U0126 for MEK1/2). […] Given the well-known cascade of PI3K-AKT-mTOR, the inventors further examined mTOR activity in the regenerating livers.

SMILES: O=c1cc(N2CCOCC2)oc2c(-c3ccccc3)cccc12 [LY294002]
- BEC-driven liver regeneration: impaired BEC-driven liver regeneration
